Test results as given in patent publication US12186304B2, “Method for treating cancer by combination of IAP inhibitor and modulator of immune checkpoint molecule” (ASCENTAGE PHARMA (SUZHOU) CO., LTD., priority 2018, dated 2025).
At least one compound was matched to its structure with a doubt left.

Experiments:
[1] = tested on: cytokine levels in serum; test: Phase I study: serum cytokine levels; format: in vivo, human; conditions: patients; baseline vs day 16 of first cycle
[2] = tested on: NK cells and effector memory CD8+ T cells in ascites; test: Ascites lymphocyte analysis in ID8-Luc tumor mice; format: in vivo, mouse; conditions: ID8-Luc model
[3] = tested on: spleen cells; test: Activation of spleen cells of healthy C57BL/6 mice in vivo; conditions: 0.2 and 0.8 mg/kg i.p. qd x 7 doses
Method: Next, we intraperitoneally administered different dosages of APG-1387 to healthy C57BL/6 mice every day. Each group has 3 mice. After 7 days of continuous administration, the spleen was taken to obtain a single cell suspension. NK, macrophage, dendritic cells and T cells were analyzed by flow cytometry to obtain the proportion of these subsets, thus evaluate the effect of APG-1387 on each immune cell subpopulation.

[4] = tested on: MC38 cells; test: In vitro growth inhibition of mouse tumor cell lines; format: cell-based; conditions: results not shown
[5] = tested on: ID8-Luc cells; test: as above; format: cell-based; conditions: results not shown
[6] = tested on: M38 cells; test: In vitro cytokine secretion by tumor cells; format: cell-based

Compound: CN[C@@H](C)C(=O)N[C@H]1CN(S(=O)(=O)c2cccc(S(=O)(=O)N3CC[C@H]4CC[C@@H](C(=O)NC(c5ccccc5)c5ccccc5)N4C(=O)[C@@H](NC(=O)[C@H](C)NC)C3)c2)CC[C@H]2CC[C@@H](C(=O)NC(c3ccccc3)c3ccccc3)N2C1=O [APG-1387]
- cytokine releasing in serum [1]: cytokine releasing in serum
- proportion of NK cells in ascites [2]: up-regulated
- proportion of effector memory CD8+ T cells in ascites ([2]; independent experiment): increased the proportion of effector memory CD8+ T cells to a certain extent
- MHC-II expression levels of spleen cells [3]: significantly increased
- growth inhibitory effect [4]: no significant growth inhibitory effect
- growth inhibitory effect [5]: no significant growth inhibitory effect
- secretion of IL-12 by tumor cells ([6]; in vitro cell experiments (APG-1387-PH-01)): stimulated tumor cells to secrete IL-12
- secretion of IFN-γ, IL-5, IL-12p70 ([6]; in vitro treatment): stimulate M38 cells to secret IFN-γ, IL-5, IL-12p70
